The nature of this assay: qHTS Assay for Lipid Storage Modulators in Drosophila S3 Cells.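 As to cell number change: cells counted by Cell Tracker Red CMTPX staining in the red channel.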 Particulars: BODIPY lipid droplet fluorescence, 18-24 h; for cell number change: measured here: cell count max response, cells fed with added oleic acid. Summed up: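 Drosophila S3 cells got compounds at several concentrations plus oleic acid (400 uM solution). Laser-scanning cytometry with 488 nm excitation read lipid droplets at 500-530 nm and cells at 575-640 nm. Percent activity was relative to 20 uM Triacsin C.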
In general terms: Quantitative high-throughput screening tests each substance at several concentrations.

The mark [1] stands for this setting: measured here: cell number channel AC50, cells fed with added oleic acid.
[2] abbreviates: measured here: lipid fluorescence (Fed channel) AC50, cells fed with added oleic acid.

58 compounds from PubChem BioAssay AID2685 (National Center for Advancing Translational Sciences (NCATS), 2010) can be followed below.

Several values for one entry are separate records, joined by “and”; a condition that tells them apart may be missing. Equal entries are not always repeated. Some of the results follow. These are further read-outs of the screen, such as a control signal, another cell line or another target. No call is given for them. Most of these compounds were active or inconclusive in the main read-out, so they are no random draw. The note in brackets gives the kind of curve behind each potency; many fits are weak.

Broadly, the AC50 is the concentration giving half of the maximal activity seen. For `O=C(Nc1ccc(NS(=O)(=O)c2ccccc2)cc1)c1ccc(Cl)cc1`, the cell number change was found to be 118%. In addition, under setting [1], the AC50 is 23.1 µM [rising, partial curve].

Take `CC(=O)NC(CC(=O)N(C)C1CCCCC1)c1ccccc1` (stereo not given): the cell number change is 15.2%.

`Cc1cccc(NS(=O)(=O)c2ccc(C(=O)NCC(C)(C)N3CCOCC3)cc2)c1C`: the cell number change is -22.7%.

As for `Cc1cccc(-n2nnnc2SCC(=O)Nc2cccc(S(N)(=O)=O)c2)c1`, the cell number change came out at 22.1%.

Regarding `COc1ccc(C(=O)NCCn2cc(SCC(=O)Nc3cc(C)on3)c3ccccc32)cc1OC`, the cell number change is -11.6%. Moreover, the AC50 under setting [2] was 0.82 µM [rising, single point].

For `CCN1C(N(C)CCc2cccs2)=N[C@@H](c2ccccc2)C(C(=O)OC)=C1C`, the cell number change amounted to 2.03%.

As for `COc1cc(OC)c(C2=NOC(C(=O)Nc3cc(C)nn3-c3ccccc3)C2)cc1Cl` (stereo not given), the cell number change was -7.19%.

As to `CCN(CC)C(=O)c1cnn(-c2ccccc2)c1NC(=O)c1cccc(F)c1`, the cell number change worked out at 24%. The AC50 under setting [2] was 29.1 µM [falling, partial curve].

On to `Nc1cnn(Cc2ccccc2F)c1`, for which the cell number change turned out to be 7.2%. Besides, the AC50 under setting [1] was 0.13 µM [falling, full curve, poor fit].

For `Cc1ccc(SCC(=O)Nc2ccc(-c3nc4ccccc4[nH]3)cc2)cc1`, the cell number change is -65.3%. The AC50 under setting [1] was 18.4 µM [falling, single point]. The AC50 under setting [2] is 6.51 µM [rising, partial curve, poor fit].

In the case of `CCOc1ccc(/C=C(\C#N)C(=O)Nc2cccnc2)cc1`, the cell number change was 2.86%. In addition, the concentration at half-maximal activity (AC50) under setting [2] was 0.517 µM [rising, partial curve].

Take `O=C(Nn1cnc2ccccc2c1=O)c1ccccc1Cl`: the cell number change worked out at 2.66%. Moreover, the AC50 under setting [2] is 0.00461 µM [falling, full curve, poor fit].

In the case of `CCOC(=O)COc1ccc2c(c1)C(=O)CC(C)(c1cccnc1)O2` (stereo not given), under setting [2], the AC50 was 0.082 µM [rising, full curve, poor fit].

With `O=C(Nc1ccc([N+](=O)[O-])cc1)c1cc2ccccc2nc1Cl`, the cell number change came out at 7.69%. Besides, under setting [2], the AC50 was 4.61 µM [rising, full curve].

With `O=C(NCc1ccco1)c1ccc(C(F)(F)F)cc1`, the cell number change was -46.8%. In addition, the AC50 under setting [1] is 2.06 µM [rising, single point]. In addition, the AC50 under setting [2] was 29.1 µM [falling, single point].

`O=C(COc1ccc(Br)cc1)Nc1ccc(CN2CCOCC2)cc1`: under setting [2], the AC50 is 29.1 µM [falling, single point].

As to `CCC1CCCCN1C/C=C/c1ccccc1[N+](=O)[O-]` (stereo not given), the cell number change came to 26.8%. Also, the AC50 under setting [1] was 0.00461 µM [rising, full curve, poor fit]. In addition, the AC50 under setting [2] was 0.116 µM [rising, full curve, poor fit].

Regarding `COC(=O)C1=C(C)N(Cc2ccccc2)C(=NCc2cccc(C(F)(F)F)c2)N[C@H]1c1cccc(F)c1`, the cell number change is -47% and -31.6%. For the same compound, under setting [1], the AC50 was 29.1 µM [falling, single point]. Further, the AC50 under setting [2] is 16.4 µM [falling, partial curve].

For `CCC(C(=O)OCC(=O)Nc1ccc(Cl)c(S(=O)(=O)N(C)C)c1)c1ccccc1` (stereo not given), the cell number change was -17.2%. For the same compound, the concentration at half-maximal activity (AC50) under setting [2] is 11.6 µM [falling, partial curve].

Take `COc1cccc(NC(=O)C(OC(=O)c2cnc(C)cn2)c2ccccc2)c1` (stereo not given): the cell number change is -4.27%. For the same compound, the AC50 under setting [2] is 29.1 µM [falling, partial curve, poor fit].

`Cc1ccccc1C(=O)N=c1c(C#N)cc2c(=O)n3cccc(C)c3nc2n1Cc1ccco1`: the cell number change stood at 28.1%. The half-maximal activity concentration (AC50) under setting [1] was 1.3 µM [rising, partial curve]. Further, under setting [2], the half-maximal activity concentration (AC50) is 0.517 µM [rising, full curve].

As to `CC(C)C[C@H](NC(=O)[C@@H](Cc1ccccc1)n1c(=O)[nH]c2ccccc2c1=O)C(=O)N[C@@H](Cc1ccccc1)C(=O)O`, the cell number change was 15%. The half-maximal activity concentration (AC50) under setting [2] is 5.8 µM [rising, full curve].

Take `CCN(CC)c1ccc2c(cc1=O)[C@@H](NC)CCc1cc(OC)c(OC)c(OC)c1-2`: under setting [2], the AC50 was 1.16 µM [rising, partial curve, poor fit].

For `Cc1ccc(/C=C/c2ccc(N(C)C)cc2)[n+](C)c1`, the cell number change is -57.2%. Besides, under setting [1], the AC50 is 23.1 µM [falling, partial curve]. Under setting [2], the AC50 was 4.11 µM [falling, full curve, poor fit].

As to `CC(=O)Nc1ccc(-c2nc3ccc(NC(C)=O)cc3o2)cc1`, the cell number change stood at 54.1%. In addition, under setting [2], the AC50 is 29.1 µM [rising, single point].

Consider `Cc1cc(-c2ccccc2)nc2cc(C(=O)N(Cc3ccccc3)Cc3ccccc3)nn12`, for which the cell number change is -31.6%. In addition, the half-maximal activity concentration (AC50) under setting [1] was 29.1 µM [falling, single point]. Moreover, the AC50 under setting [2] was 29.1 µM [falling, single point].

As for `CCc1cccc(C)c1NC(=O)COC(=O)CC1CCCC1`, the cell number change is 32.3%. Under setting [1], the half-maximal activity concentration (AC50) is 29.1 µM [rising, single point].

Take `Cc1c(Cl)cccc1S(=O)(=O)N1CCC(C(=O)NNC(=O)C2CC2)CC1`: the cell number change worked out at 8.43%. Further, the AC50 under setting [2] is 0.00517 µM [rising, full curve, poor fit].

Regarding `CC(C)Oc1cccc(-c2cc(C(=O)N3CCN(c4ncccn4)CC3)c3ccccc3n2)c1`, the cell number change is -27.8%. Under setting [2], the AC50 was 25.9 µM [falling, single point].

For `Cc1ccc(NC(=O)c2ccc3c(c2)C(=O)N(c2ccccc2C)C3=O)nc1`, the cell number change was -27.2%. Moreover, under setting [2], the AC50 is 29.1 µM [falling, single point].

Take `COc1ccc(CNCc2cn(-c3cccc(F)c3)nc2-c2ccc(C)o2)cc1`: the cell number change was -59.9%. In addition, under setting [1], the AC50 was 18.4 µM [falling, single point]. In addition, the half-maximal activity concentration (AC50) under setting [2] was 29.1 µM [falling, single point].

On to `CCOC(=O)c1sc(NC(=O)Nc2ccc(F)cc2)nc1C`, for which the cell number change was -23.8%. Further, the AC50 under setting [2] is 18.4 µM [falling, single point].

For the compound `CCCCN1C(=O)CC(C(=O)O)C1c1ccc(OC)cc1` (stereo not given), the cell number change is -57.8%. Besides, under setting [1], the AC50 was 11.6 µM [falling, partial curve]. Under setting [2], the AC50 was 18.4 µM [falling, single point].

`COC(=O)c1cc(C(=O)NCc2ccc3c(c2)OCO3)cc([N+](=O)[O-])c1`: the cell number change was found to be 0.365%.

Take `O=C(c1ccc(=O)oc1)N1CCN(c2ccc(F)cc2)CC1`: the cell number change is 9.06%.

As for `CSc1nc(-c2ccccc2)nc(C(Cl)Cl)n1`, the concentration at half-maximal activity (AC50) under setting [2] was 7.31 µM [falling, partial curve].

With `CC1CN(S(=O)(=O)c2csc(C(=O)Nc3ccccc3)c2)CC(C)O1` (stereo not given), the cell number change was -27%. Under setting [2], the AC50 was 13 µM [falling, partial curve].

For `CCCCn1c(N)c(N(Cc2ccccc2OC)C(=O)COc2ccc(C)cc2)c(=O)[nH]c1=O`, the cell number change came to 20.1%. Moreover, the AC50 under setting [1] was 1.46 µM [rising, partial curve, poor fit]. Moreover, the AC50 under setting [2] is 3.26 µM [rising, full curve].

`CCOC(=O)c1c(C)nc2sc(C(=O)Nc3ccc(C(C)=O)cc3)c(N)c2c1-c1ccc(OC)cc1`: the cell number change turned out to be 9.35%. For the same compound, the AC50 under setting [2] was 4.61 µM [falling, single point].

As for `COc1ccc(C(=O)O)cc1S(=O)(=O)N(C)CCc1ccccn1`, the cell number change was -22.9%.

For the compound `CC(NC(=O)C12CC3CC(CC(O)(C3)C1)C2)c1ccc(Cl)cc1Cl` (stereo not given), the cell number change was -3.6%. Besides, the AC50 under setting [2] was 29.1 µM [rising, single point].

Take `COc1ccc(S(=O)(=O)n2cnc3ccccc32)cc1`: the half-maximal activity concentration (AC50) under setting [2] is 0.291 µM [rising, single point].

In the case of `CCn1c(CC(=O)Nc2ccccc2)nnc1SCC(=O)Nc1nncs1`, the cell number change stood at 14.4%. Besides, the AC50 under setting [2] was 0.58 µM [rising, single point].

For `Cn1c2cc(B(O)O)sc2c2cnn(Cc3ccccc3F)c(=O)c21`, the cell number change worked out at 46%. Besides, under setting [1], the AC50 was 23.1 µM [rising, partial curve, poor fit]. In addition, the AC50 under setting [2] is 23.1 µM [rising, partial curve, poor fit].

For the compound `Nc1nc2c(s1)CCc1ccccc1-2`, the cell number change was 5.32%. Further, the AC50 under setting [2] was 6.51 µM [falling, single point].

For the compound `O=C(c1cncc(Br)c1)N1CCN(c2ccc(N3CCOCC3)nn2)CC1`, the cell number change stood at 13.9%. For the same compound, the AC50 under setting [2] is 29.1 µM [rising, single point].

With `COc1ccc(CCNC(=O)C2=CCN(S(=O)(=O)c3ccc(F)cc3)CC2)cc1OC`, the cell number change was -35.8%. The AC50 under setting [1] is 1.03 µM [falling, partial curve, poor fit].

With `N#CCCN(Cc1cccnc1)S(=O)(=O)c1ccc2ccccc2c1`, the cell number change is -16.8%. Moreover, under setting [1], the AC50 is 0.651 µM [falling, full curve, poor fit]. Moreover, the AC50 under setting [2] is 0.517 µM [falling, full curve].

With `CC(C[N+](C)(C)C)OC(=O)C1(c2ccccc2)CCCC1` (stereo not given), the cell number change is 13.5%. For the same compound, the half-maximal activity concentration (AC50) under setting [2] is 18.4 µM [rising, single point].

`CN(C)c1cccc(C(=O)OCCCC(=O)c2ccc(F)cc2)c1`: the cell number change was -9.5%. The half-maximal activity concentration (AC50) under setting [2] is 0.00651 µM [rising, full curve, poor fit].

In the case of `O=C(Nc1ccccc1)N1CCC(C(=O)N(Cc2ccco2)Cc2cccs2)CC1`, the cell number change is -44.7%. Under setting [1], the half-maximal activity concentration (AC50) is 23.1 µM [falling, single point]. For the same compound, under setting [2], the AC50 was 18.4 µM [falling, single point].

In the case of `O=C(COC(=O)Cc1ccsc1)Nc1ccc(Cl)cn1`, the cell number change is -19.6%. Besides, under setting [2], the AC50 was 0.58 µM [falling, single point].

As to `COC(=O)[C@H](Cc1ccccc1)[C@@H](C)OS(N)(=O)=O`, the cell number change stood at 22.3%.

Turning to `NS(=O)(=O)c1ccc(NC(=O)CSc2nnc(NC3CC3)s2)cc1`, the cell number change was -7%.

For the compound `Cc1csc(NC(=O)c2ccc(C)c([N+](=O)[O-])c2)n1`, the cell number change is -50%. Besides, the AC50 under setting [1] was 8.2 µM [falling, partial curve]. In addition, the half-maximal activity concentration (AC50) under setting [2] was 4.61 µM [rising, full curve].

Turning to `CC/C(=N\NC(=O)COc1ccc(Br)cc1)c1ccc(OC)c(OC)c1`, the AC50 by setting is: under setting [1], 5.8 µM [rising, single point]; under setting [2], 6.51 µM [rising, partial curve, poor fit].

As to `CS(=O)(=O)N1CCc2cc(C(=O)Nc3ccccc3Cl)ccc21`, the cell number change was 22.3%.

Take `COC(=O)Cn1nc(-c2ccccc2)c2ccccc21`: the cell number change was -36.9%. Besides, under setting [1], the AC50 is 32.6 µM [falling, single point]. In addition, the AC50 under setting [2] is 29.1 µM [falling, single point].
